Assay [1] addresses PlxnA1_(1-10) F145N/L147S (mouse) (UniProt P70206). Description: SEC-MALS; analytical Superdex S200 10/30 column coupled to static light-scattering, differential refractive index and UV detectors; both purified. A general note: SEC sorts molecules by how far they enter the pores of the column.
Assay [2] addresses PlxnA1_(1-10) F693N/E695S (mouse) (UniProt P70206). In words: AUC; sedimentation velocity, 40,000 rpm, absorbance at 280 nm, c(s) analysis; protein at 28.1 μM (4 mg/ml); both purified.
Assay [3] has the same target. In words: SEC-MALS; analytical Superdex S200 10/30 column coupled to static light-scattering, differential refractive index and UV detectors; both purified.
The target is the same in assay [4]. In words: AUC; sedimentation velocity, 40,000 rpm, absorbance at 280 nm, c(s) analysis; protein at 7.0 μM (1 mg/ml); both purified.

Chains of the proteins cited; added tags and fusions are not shown. Lines headed by an entry give the natural chain unless they say otherwise; changes in a name come on top. A line that says so, or that is headed by a name, gives the form on record, which may keep a tag or linker.
PlxnA1_(1-10) F145N/L147S (P70206, form named): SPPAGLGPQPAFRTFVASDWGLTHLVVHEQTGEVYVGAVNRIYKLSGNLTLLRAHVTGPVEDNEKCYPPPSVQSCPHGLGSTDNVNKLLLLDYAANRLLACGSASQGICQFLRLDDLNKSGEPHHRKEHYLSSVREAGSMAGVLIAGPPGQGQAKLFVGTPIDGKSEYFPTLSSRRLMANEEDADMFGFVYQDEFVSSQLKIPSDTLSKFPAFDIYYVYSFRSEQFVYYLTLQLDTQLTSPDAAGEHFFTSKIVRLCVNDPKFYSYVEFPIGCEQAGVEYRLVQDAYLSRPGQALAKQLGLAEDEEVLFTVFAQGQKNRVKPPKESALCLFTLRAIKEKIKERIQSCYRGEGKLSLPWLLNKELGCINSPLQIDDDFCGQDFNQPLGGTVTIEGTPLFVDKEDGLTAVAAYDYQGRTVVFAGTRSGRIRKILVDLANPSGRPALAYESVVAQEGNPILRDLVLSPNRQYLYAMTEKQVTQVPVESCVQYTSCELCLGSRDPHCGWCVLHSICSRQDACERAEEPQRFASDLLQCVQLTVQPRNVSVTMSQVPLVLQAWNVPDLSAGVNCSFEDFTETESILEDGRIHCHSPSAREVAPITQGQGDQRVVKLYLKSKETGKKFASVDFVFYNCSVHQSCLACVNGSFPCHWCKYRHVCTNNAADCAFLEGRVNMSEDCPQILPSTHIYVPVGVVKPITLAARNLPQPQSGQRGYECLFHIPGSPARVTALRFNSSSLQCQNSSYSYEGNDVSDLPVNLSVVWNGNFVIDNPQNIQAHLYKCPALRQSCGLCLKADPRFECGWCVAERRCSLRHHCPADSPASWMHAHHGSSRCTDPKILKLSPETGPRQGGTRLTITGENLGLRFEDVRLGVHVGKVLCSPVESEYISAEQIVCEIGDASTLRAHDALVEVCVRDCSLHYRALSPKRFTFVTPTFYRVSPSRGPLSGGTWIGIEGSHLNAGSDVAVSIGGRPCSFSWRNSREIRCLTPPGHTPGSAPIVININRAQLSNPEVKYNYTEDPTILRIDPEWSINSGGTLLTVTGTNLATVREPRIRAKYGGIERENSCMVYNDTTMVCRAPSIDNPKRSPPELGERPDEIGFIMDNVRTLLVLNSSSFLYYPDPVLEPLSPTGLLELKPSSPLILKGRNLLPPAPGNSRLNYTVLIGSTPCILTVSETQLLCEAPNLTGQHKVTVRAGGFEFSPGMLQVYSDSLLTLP
PlxnA1_(1-10) F693N/E695S (P70206, form named): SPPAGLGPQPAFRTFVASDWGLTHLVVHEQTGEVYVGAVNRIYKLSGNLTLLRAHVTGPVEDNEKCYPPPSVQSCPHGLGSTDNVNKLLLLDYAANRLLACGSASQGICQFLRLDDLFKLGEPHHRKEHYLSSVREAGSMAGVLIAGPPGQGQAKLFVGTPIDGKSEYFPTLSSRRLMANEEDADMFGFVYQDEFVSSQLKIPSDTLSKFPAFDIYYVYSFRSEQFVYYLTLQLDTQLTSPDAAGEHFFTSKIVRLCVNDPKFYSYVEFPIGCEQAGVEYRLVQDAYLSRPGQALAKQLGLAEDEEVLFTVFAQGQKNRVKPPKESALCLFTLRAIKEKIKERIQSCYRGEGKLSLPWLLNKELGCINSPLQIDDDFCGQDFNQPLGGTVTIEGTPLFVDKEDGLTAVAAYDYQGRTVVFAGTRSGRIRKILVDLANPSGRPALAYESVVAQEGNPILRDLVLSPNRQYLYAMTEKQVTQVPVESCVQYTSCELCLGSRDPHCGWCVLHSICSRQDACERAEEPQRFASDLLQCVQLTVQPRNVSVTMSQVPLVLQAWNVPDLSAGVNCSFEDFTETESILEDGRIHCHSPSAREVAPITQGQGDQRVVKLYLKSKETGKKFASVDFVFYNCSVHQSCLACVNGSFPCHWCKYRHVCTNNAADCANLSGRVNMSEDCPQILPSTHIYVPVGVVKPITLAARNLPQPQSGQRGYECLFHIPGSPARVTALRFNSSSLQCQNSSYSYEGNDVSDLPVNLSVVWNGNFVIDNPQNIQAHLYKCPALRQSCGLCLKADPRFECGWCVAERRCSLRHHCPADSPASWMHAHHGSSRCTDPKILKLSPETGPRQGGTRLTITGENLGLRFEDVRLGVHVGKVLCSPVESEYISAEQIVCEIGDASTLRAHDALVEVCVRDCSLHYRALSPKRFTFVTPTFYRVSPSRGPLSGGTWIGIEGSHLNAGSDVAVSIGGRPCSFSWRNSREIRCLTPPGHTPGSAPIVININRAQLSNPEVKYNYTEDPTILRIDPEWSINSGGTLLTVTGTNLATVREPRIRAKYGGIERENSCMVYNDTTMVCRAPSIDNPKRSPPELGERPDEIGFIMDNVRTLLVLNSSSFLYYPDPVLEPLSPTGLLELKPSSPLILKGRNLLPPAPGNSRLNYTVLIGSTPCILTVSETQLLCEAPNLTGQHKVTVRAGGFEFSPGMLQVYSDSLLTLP

Results are given in words; binding and its absence hold for the method and conditions named.

On to “PlxnA1_(1-10) F145N/L147S (from UniProt P70206 28-1242) (domain or fragment)”, for which the binding entry in assay [1] is “no binding”.
In the case of “PlxnA1_(1-10) F693N/E695S (from UniProt P70206 28-1242) (domain or fragment)”, the binding result in assay [2] is on record as “no binding (tested: 28.1 μM)”; in assay [3], “no binding”; in assay [4] it was “no binding (tested: 7.0 μM)”.

For the origin of these results see article PMC4980550, “Structural Basis for Plexin Activation and Regulation” (Neuron, 2016).
